Test results taken from paper PMC9546906.
These are yes or no findings as the source states them, for the method shown. In cells and extracts the contact can be indirect. Some results given as binding are weak or reduced against the parent protein; the word gives no strength.

Protein sequences, listed by entry. Tags and fused reporters are not part of them.
UniProt Q9QUI0: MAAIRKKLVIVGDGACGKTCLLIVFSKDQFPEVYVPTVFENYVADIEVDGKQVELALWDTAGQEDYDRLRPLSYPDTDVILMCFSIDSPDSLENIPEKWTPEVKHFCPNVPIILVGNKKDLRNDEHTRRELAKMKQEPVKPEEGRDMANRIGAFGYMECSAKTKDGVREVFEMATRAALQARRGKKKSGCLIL
UniProt Q6PDN3: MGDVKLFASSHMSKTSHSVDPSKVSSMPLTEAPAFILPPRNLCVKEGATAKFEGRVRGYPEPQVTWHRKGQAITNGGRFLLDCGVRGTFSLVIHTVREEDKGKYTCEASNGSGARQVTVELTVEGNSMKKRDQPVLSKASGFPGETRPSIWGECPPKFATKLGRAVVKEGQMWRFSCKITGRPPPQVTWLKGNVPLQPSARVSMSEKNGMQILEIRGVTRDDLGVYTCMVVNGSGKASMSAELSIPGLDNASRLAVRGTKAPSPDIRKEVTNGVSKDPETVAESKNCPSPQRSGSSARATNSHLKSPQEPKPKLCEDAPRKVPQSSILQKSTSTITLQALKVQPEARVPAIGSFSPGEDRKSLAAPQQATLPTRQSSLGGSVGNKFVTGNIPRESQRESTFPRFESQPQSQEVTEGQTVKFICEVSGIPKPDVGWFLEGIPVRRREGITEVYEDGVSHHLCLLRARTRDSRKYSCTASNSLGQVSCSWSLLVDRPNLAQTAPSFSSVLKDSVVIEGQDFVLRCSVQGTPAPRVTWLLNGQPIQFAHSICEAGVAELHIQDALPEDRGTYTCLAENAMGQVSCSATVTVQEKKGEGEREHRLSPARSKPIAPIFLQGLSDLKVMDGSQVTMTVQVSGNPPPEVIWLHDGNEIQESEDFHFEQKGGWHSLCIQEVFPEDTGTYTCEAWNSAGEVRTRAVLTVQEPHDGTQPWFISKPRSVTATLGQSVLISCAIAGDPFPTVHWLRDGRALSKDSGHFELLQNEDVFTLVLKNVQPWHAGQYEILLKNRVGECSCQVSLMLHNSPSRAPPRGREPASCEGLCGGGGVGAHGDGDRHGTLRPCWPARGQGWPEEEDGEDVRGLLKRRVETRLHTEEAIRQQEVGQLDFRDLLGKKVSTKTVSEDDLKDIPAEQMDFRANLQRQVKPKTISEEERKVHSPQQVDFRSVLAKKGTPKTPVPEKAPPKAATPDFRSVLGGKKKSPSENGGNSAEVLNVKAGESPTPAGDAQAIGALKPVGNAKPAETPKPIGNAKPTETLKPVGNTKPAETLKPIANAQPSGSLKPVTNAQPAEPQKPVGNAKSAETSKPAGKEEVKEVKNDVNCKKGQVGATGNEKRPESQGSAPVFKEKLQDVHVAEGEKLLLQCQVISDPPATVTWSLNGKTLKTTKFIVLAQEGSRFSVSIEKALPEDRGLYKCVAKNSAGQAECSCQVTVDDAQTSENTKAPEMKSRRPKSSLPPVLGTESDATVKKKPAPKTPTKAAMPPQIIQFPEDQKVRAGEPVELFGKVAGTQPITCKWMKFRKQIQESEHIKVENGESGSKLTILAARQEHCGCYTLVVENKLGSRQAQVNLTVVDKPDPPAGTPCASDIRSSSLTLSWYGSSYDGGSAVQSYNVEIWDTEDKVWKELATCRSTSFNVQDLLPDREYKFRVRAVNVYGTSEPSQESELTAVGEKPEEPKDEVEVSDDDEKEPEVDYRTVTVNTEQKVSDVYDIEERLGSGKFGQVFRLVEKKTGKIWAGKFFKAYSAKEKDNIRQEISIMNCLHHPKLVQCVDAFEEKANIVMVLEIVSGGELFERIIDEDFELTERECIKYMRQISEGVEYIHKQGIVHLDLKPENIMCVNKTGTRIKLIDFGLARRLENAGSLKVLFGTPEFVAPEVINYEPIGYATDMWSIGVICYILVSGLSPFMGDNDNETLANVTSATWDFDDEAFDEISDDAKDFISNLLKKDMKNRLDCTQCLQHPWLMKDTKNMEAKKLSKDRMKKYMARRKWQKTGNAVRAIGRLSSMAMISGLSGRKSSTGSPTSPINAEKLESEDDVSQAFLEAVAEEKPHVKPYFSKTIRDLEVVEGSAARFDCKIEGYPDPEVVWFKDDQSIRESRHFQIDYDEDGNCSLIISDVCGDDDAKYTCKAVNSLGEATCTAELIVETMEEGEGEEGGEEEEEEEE
UniProt Q9EQU5: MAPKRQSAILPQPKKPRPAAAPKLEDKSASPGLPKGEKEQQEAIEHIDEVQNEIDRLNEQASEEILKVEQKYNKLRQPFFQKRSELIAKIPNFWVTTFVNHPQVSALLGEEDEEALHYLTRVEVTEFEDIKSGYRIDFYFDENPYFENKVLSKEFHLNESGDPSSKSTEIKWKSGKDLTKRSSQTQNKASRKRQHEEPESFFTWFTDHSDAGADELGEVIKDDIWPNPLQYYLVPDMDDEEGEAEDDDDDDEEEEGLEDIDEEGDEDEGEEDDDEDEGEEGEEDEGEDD
UniProt P97820: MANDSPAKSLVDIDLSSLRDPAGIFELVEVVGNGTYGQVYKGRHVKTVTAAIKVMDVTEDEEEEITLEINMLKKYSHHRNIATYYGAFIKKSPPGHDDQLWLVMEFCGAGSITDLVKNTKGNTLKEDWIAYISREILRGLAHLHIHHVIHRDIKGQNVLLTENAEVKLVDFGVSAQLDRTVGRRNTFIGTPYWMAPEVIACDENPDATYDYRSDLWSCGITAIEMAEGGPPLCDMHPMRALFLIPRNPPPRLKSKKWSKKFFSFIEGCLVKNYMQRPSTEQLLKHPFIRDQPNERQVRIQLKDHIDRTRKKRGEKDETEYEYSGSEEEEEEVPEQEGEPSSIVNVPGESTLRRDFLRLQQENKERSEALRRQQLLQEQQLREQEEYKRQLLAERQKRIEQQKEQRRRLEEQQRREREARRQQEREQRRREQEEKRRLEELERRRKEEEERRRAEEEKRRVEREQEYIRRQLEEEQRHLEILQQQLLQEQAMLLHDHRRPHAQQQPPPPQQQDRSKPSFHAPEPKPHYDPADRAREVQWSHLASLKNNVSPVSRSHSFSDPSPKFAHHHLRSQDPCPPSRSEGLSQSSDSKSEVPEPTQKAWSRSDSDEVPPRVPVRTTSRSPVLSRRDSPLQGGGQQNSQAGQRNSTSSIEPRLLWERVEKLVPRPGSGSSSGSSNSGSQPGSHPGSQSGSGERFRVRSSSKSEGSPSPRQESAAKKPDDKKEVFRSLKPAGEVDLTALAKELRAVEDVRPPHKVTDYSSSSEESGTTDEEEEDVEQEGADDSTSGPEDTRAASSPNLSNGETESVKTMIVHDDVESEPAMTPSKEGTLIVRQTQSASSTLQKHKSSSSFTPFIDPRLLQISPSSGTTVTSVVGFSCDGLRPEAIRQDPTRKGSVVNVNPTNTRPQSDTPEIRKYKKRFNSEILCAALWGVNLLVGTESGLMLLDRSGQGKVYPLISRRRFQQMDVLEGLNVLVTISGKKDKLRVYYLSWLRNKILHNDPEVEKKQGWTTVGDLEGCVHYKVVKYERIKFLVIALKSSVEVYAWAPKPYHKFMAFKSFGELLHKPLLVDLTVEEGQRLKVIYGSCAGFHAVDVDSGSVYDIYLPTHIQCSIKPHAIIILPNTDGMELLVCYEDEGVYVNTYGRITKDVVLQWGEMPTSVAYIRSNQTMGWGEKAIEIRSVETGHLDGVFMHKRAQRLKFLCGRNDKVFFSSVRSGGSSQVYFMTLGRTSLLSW

Assays:
[1] = molecular target: RhoA (endogenous, active GTP-bound form) (mouse (endogenous in mouse aortic VSMCs)) (UniProt Q9QUI0); test: pull-down; extracts of control VSMCs after saline or AngII incubated overnight at 4 °C with GST-mDia Rho-binding domain on glutathione Sepharose to collect GTP-bound RhoA; 50 mmol/L Tris/HCl pH 7.5, 0.5 mol/L NaCl, 10 mmol/L MgCl2, 1% Triton X-100; western blot with anti-Set and anti-RhoA
[2] = molecular target: myosin light chain kinase (MYLK) (mouse (endogenous in mouse aortic VSMCs)) (UniProt Q6PDN3); test: co-IP; lysates of mouse aortic VSMCs, pre-cleared with protein G Sepharose, indicated primary antibody overnight at 4 °C, protein G Sepharose 2 h, washed with RIPA buffer, western blot; IgG as negative control

binding [1]	binding [2]	Substance
binds		Set (endogenous) (from UniProt Q9EQU5 1-289)
	binds	mitogen-activated protein kinase kinase kinase kinase 4 (MAP4K4) (from UniProt P97820 1-1233) (enzyme)
